In article PMC3527619:
These are yes or no findings as the source states them, for the method shown. Some binding calls cover weakened binding; strength is not graded here. Where a sequence is shown, tags or fusion partners need not be part of it.

Sequences of proteins named here, by UniProt entry; tags and fusion partners are left off. Residues count along the entry.
UniProt P07437, residues 329-444: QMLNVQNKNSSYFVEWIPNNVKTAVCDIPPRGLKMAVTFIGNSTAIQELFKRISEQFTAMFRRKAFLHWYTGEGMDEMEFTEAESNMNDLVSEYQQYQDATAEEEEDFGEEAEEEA

Biological target: T1, LexA DNA binding domain fused to full length human Centaurin-α2 (bait, pSTT91-Centaurin-α2) (human) (UniProt Q9NPF8)
T1 sequence: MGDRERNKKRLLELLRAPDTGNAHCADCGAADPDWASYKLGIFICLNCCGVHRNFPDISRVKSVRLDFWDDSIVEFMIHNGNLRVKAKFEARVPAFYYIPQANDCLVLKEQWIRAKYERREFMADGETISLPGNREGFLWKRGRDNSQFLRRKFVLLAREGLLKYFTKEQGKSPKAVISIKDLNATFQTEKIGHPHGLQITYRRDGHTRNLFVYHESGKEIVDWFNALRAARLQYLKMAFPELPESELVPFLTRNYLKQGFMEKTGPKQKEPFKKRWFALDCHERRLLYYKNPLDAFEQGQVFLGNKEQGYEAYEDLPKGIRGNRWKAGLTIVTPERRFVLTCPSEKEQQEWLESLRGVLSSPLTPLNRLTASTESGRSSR
Assay: two-hybrid; S. cerevisiae L40; baits fused to a DNA binding domain (LexA; pSTT91 or pBTM116), preys in pACT2 (GAL4 fusion); growth on selective medium and β-galactosidase filter assay at 30°C

In the case of “Tubulin β chain class I, prey clone encoding the last 116 amino acids of the C-terminal region (pACT2, GAL4 fusion) (from UniProt P07437 329-444) (domain or fragment)”, the binding is reported as “binds”.
